PubChem BioAssay AID1259405 – NCATS – 2018
Here is an unselected part of about 50,000 reagents tested. About 4,000 of them (8%) count as active. 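Mouse siRNA library applied to hamster cells; one well for each siRNA.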 The numbers tell different reagents against one gene apart. Reagent sequences are not shown.

Screen: 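Silenced genes that increase secreted GFP made by CHO cells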 (primary screen)
Cells: Chinese hamster CHO-K1 ovary cells with stable secreted eGFP expression
Reagent: single siRNA against mouse genes, 0.8 pmol siRNA per well (2 µl of 400 nM stock)
Timing: 3 days
Read-out: 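Percent of the per-plate non-targeting control median for intracellular GFP per well by laser scanning cytometry and for cell viability by ATP luminescence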
Direction: GFP, % of control: higher = more GFP per well, higher productivity; viability (ATP), % of control: higher = more viable cells (more ATP)
Active means: 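a knock-down is called active if GFP reaches 120% or more of non-targeting control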

What is on record for Taf6 #1?
GFP, % of control: 36.1; viability (ATP), % of control: 32.9; activity call: inactive

What is on record for Taf6 #2?
GFP, % of control: 72.3; viability (ATP), % of control: 70.4; activity call: inactive

With Taf6 #3, what does the deposit list?
GFP, % of control: 65; viability (ATP), % of control: 87.4; activity call: inactive

With Cbr1 #1, what was measured?
GFP, % of control: 89.2; viability (ATP), % of control: 85.9; activity call: inactive

With Cbr1 #2, how do the results read?
GFP, % of control: 93.7; viability (ATP), % of control: 89.1; activity call: inactive

With Cbr1 #3, what was measured?
GFP, % of control: 58.7; viability (ATP), % of control: 65.8; activity call: inactive

With Slc29a3 #1, what does the deposit list?
GFP, % of control: 104; viability (ATP), % of control: 91.2; activity call: inactive

For Slc29a3 #2, how do the results read?
GFP, % of control: 40.2; viability (ATP), % of control: 74.3; activity call: inactive

With Slc29a3 #3, how do the results read?
GFP, % of control: 85.4; viability (ATP), % of control: 101; activity call: inactive

What is on record for Nek1?
GFP, % of control: 89.2; viability (ATP), % of control: 95.4; activity call: inactive

With Akap4 #1, what does the deposit list?
GFP, % of control: 80.9; viability (ATP), % of control: 88.3; activity call: inactive

Which result is listed for Akap4 #2?
GFP, % of control: 138; viability (ATP), % of control: 70.5; activity call: active

With Arhgap11a #1, what was measured?
GFP, % of control: 88.6; viability (ATP), % of control: 118; activity call: inactive

With Arhgap11a #2, what was measured?
GFP, % of control: 106; viability (ATP), % of control: 105; activity call: inactive

For Arhgap11a #3, what does the deposit list?
GFP, % of control: 111; viability (ATP), % of control: 117; activity call: inactive

6 of these entries, set out differently:
gene symbol	reagent	GFP, % of control	viability (ATP), % of control	activity call
Taf6	1	36.1	32.9	inactive
Taf6	2	72.3	70.4	inactive
Taf6	3	65	87.4	inactive
Cbr1	1	89.2	85.9	inactive
Cbr1	2	93.7	89.1	inactive
Cbr1	3	58.7	65.8	inactive

Continued:
How did the screen score Or6c201 #1?
GFP, % of control: 64.3; viability (ATP), % of control: 80.8; activity call: inactive

For Or6c201 #2, how do the results read?
GFP, % of control: 71.5; viability (ATP), % of control: 80.2; activity call: inactive

How did the screen score Or6c201 #3?
GFP, % of control: 108; viability (ATP), % of control: 42; activity call: inactive

What is on record for Bhlhe41 #1?
GFP, % of control: 87.6; viability (ATP), % of control: 67.3; activity call: inactive

How did the screen score Bhlhe41 #2?
GFP, % of control: 65.6; viability (ATP), % of control: 56.3; activity call: inactive

What is on record for Tead2 #1?
GFP, % of control: 72.3; viability (ATP), % of control: 81.6; activity call: inactive

With Tead2 #2, what was measured?
GFP, % of control: 27.3; viability (ATP), % of control: 33.6; activity call: inactive

For Tead2 #3, what does the deposit list?
GFP, % of control: 89.9; viability (ATP), % of control: 99.1; activity call: inactive

How did the screen score Lamp1 #1?
GFP, % of control: 82.6; viability (ATP), % of control: 79.8; activity call: inactive

How did the screen score Lamp1 #2?
GFP, % of control: 86.1; viability (ATP), % of control: 43.1; activity call: inactive

Which result is listed for Lamp1 #3?
GFP, % of control: 64.2; viability (ATP), % of control: 48.8; activity call: inactive

With Vps13b #1, what was measured?
GFP, % of control: 69.7; viability (ATP), % of control: 52.4; activity call: inactive

With Vps13b #2, what was measured?
GFP, % of control: 89.2; viability (ATP), % of control: 75.9; activity call: inactive

How did the screen score Vps13b #3?
GFP, % of control: 112; viability (ATP), % of control: 99.7; activity call: inactive

How did the screen score Frmd6 #1?
GFP, % of control: 67.5; viability (ATP), % of control: 85.7; activity call: inactive

What is on record for Frmd6 #2?
GFP, % of control: 21; viability (ATP), % of control: 24.5; activity call: inactive

For Frmd6 #3, what was measured?
GFP, % of control: 92.6; viability (ATP), % of control: 106; activity call: inactive

What did the screen give for Pla2g2a #1?
GFP, % of control: 72.1; viability (ATP), % of control: 46.5; activity call: inactive

How did the screen score Pla2g2a #2?
GFP, % of control: 77.2; viability (ATP), % of control: 68.2; activity call: inactive

With Pla2g2a #3, what does the deposit list?
GFP, % of control: 67.3; viability (ATP), % of control: 74.7; activity call: inactive

With Nkiras2 #1, what was measured?
GFP, % of control: 103; viability (ATP), % of control: 93.7; activity call: inactive

What did the screen give for Nkiras2 #2?
GFP, % of control: 84.6; viability (ATP), % of control: 95.7; activity call: inactive

With Nkiras2 #3, what was measured?
GFP, % of control: 71.9; viability (ATP), % of control: 72.7; activity call: inactive

What is on record for Gabrg1 #1?
GFP, % of control: 45.7; viability (ATP), % of control: 64.3; activity call: inactive

With Gabrg1 #2, what was measured?
GFP, % of control: 45.8; viability (ATP), % of control: 45.7; activity call: inactive

For Gabrg1 #3, what was measured?
GFP, % of control: 43.8; viability (ATP), % of control: 49; activity call: inactive
